Reference: patent publication US20190153113A1, “CD39 VASCULAR ISOFORM TARGETING AGENTS” (INNATE PHARMA, priority 2015, published 2019)
Where a chain is given by its changes, count along the chain named. Names may count otherwise. Results are given in words; binding and its absence hold for the method and conditions named. Some binding calls cover weakened binding; strength is not graded here. Sequences can lack the tags named with a protein.

Columns and labels:
[1] = target: Cynomolgus CD39 expressed on HEK cells (cynomolgus); assay: flow cytometry on HEK cells expressing cynomolgus CD39
[2] = target: T1, CD39 mutant 6 (K188R, replacement of the residues 190 to 206 by KTPGGS) (human) (UniProt P49961); assay: flow cytometry, HEK293T cells transfected with mutant 6
T1 sequence: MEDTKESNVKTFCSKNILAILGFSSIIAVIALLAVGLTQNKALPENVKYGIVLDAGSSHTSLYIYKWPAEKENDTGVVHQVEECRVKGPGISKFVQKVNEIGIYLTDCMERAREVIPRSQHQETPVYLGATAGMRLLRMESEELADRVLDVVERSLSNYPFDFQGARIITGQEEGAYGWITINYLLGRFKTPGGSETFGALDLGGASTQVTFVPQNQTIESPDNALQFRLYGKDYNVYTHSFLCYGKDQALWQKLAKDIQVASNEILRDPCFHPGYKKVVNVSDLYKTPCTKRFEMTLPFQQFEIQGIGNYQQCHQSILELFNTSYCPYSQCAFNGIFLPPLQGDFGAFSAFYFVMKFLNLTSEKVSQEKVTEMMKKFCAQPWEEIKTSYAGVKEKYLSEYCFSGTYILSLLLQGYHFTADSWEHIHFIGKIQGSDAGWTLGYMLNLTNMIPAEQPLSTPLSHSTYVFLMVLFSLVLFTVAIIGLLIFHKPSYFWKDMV

[3] = target: T2, CD39 mutant 8 (S293A, K297G, K302A, E305A, T307K, Q311A) (human) (UniProt P49961); assay: flow cytometry, HEK293T cells transfected with mutant 8
T2 sequence: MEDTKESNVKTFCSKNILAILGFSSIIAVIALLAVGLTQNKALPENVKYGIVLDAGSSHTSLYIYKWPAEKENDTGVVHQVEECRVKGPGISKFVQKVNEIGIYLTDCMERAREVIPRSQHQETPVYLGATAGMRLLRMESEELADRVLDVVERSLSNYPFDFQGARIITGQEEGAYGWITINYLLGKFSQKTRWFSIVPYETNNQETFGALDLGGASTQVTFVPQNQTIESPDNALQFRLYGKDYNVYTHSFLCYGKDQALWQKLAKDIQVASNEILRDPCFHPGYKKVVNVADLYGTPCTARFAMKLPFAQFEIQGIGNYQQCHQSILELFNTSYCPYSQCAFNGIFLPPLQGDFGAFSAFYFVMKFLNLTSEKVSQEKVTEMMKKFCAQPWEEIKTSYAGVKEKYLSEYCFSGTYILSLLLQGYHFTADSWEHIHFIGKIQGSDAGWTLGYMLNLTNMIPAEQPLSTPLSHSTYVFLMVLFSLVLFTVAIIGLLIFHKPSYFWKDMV

[4] = target: T3, CD39 mutant 9 (K287E, K288A, V289A, E314R) (human) (UniProt P49961); assay: flow cytometry, HEK293T cells transfected with mutant 9
T3 sequence: T2 sequence with K288E, K289A, V290A, A294S, G298K, A303K, A306E, K308T, A312Q, E315R

[5] = target: T4, CD39 mutant 12 (K389N, Q393K, P394S, E397A) (human) (UniProt P49961); assay: flow cytometry, HEK293T cells transfected with mutant 12
T4 sequence: T2 sequence with A294S, G298K, A303K, A306E, K308T, A312Q, K388N, Q392K, P393S, E396A

[6] = target: T5, CD39 mutant 13 (A403P, G404A, K406A, E407A) (human) (UniProt P49961); assay: flow cytometry, HEK293T cells transfected with mutant 13
T5 sequence: T2 sequence with A294S, G298K, A303K, A306E, K308T, A312Q, A402P, G403A, K405A, E406A

[7] = target: T6, CD39 mutant 10B (H429A, T431A, A432D, D433A) (human) (UniProt P49961); assay: flow cytometry, HEK293T cells transfected with mutant 10B
T6 sequence: T2 sequence with A294S, G298K, A303K, A306E, K308T, A312Q, H428A, T430A, A431D, D432A

[8] = target: T7, Recombinant human CD39 protein (vascular isoform), soluble (human) (UniProt P49961); assay: ELISA on coated recombinant human CD39, top panel of FIG. 2 (HUS2 format)
T7 sequence: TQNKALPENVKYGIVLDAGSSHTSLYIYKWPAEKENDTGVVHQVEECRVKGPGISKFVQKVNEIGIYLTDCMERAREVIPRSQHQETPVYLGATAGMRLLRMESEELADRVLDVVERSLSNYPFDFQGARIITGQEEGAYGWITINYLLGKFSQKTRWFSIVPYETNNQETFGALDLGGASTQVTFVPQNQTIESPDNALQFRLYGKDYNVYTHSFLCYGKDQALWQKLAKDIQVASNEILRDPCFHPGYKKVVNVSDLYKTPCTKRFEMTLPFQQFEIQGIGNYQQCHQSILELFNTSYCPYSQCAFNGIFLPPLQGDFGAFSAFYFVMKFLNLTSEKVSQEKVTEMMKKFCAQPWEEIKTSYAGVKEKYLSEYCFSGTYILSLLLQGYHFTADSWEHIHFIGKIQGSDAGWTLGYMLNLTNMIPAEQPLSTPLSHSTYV

[9] = target: T7, Recombinant human CD39 protein (vascular isoform), soluble (human); assay: ELISA on coated recombinant human CD39 (RechuCD39), HRP secondary antibody, TMB, OD 450 nm [top panel CHS2-I-391]
[10] = target: T7, Recombinant human CD39 protein (vascular isoform), soluble (human); assay: ELISA on coated recombinant human CD39, bottom panel of FIG. 2 (mouse IgG2a format)
[11] = target: T7, Recombinant human CD39 protein (vascular isoform), soluble (human); assay: ELISA on coated recombinant human CD39 (RechuCD39), HRP secondary antibody, TMB, OD 450 nm [bottom panel Mouse IgG2a I-391]

Measured: binding

B1: Antibody I-391, Fc silent recombinant chimeric human IgG1 with heavy chain N297Q mutation (antibody, V domains shown)
VH: QIQLVQSGPELKKPGETVKISCKASGYTFRNYGMNWVKQAPGKGLKWMGWINTYTGEPTYADDFKGRFAFSLATSASTAYLQISNLKNEDTATYFCARKAYYGSNYYFDYWGQGTTLTVSS
VL: DIVMTQSHKFMSTSVGDRVSITCKASQDVSTAVAWYQQKPGQSPKLLIYSASYRYTGVPDRFTGSGSGTDFTFTISTVQAEDLAVYYCQQHYTTPPYTFGGGTKLEIKR
not listed: [10] | [11]
binds: all other assays above

B2: Antibody I-391 with Fc domain of mouse IgG2a isotype (MOGA) (antibody, V domains shown)
VH: B1 VH
VL: DIVMTQSHKFMSTSVGDRVSITCKASQDVSTAVAWYQQKPGQSPKLLIYSASYRYTGVPDRFTGSGSGTDFTFTISTVQAEDLAVYYCQQHYTTPPYTFGGGTKLEIK
binds: [10] | [11]
